Measurements from paper doi:10.1101/617092.
These are yes or no findings as the source states them, for the method shown. Binding seen in cells or lysates may run through a third protein. For some of these results: Binding calls can cover weak binding; strength is not graded here. One block for each substance: values may come before it.

Chains of the proteins cited; added tags and fusions are not shown. Lines headed by an entry give the natural chain unless they say otherwise; changes in a name come on top. Residues count along the entry.
UniProt Q9HBA0: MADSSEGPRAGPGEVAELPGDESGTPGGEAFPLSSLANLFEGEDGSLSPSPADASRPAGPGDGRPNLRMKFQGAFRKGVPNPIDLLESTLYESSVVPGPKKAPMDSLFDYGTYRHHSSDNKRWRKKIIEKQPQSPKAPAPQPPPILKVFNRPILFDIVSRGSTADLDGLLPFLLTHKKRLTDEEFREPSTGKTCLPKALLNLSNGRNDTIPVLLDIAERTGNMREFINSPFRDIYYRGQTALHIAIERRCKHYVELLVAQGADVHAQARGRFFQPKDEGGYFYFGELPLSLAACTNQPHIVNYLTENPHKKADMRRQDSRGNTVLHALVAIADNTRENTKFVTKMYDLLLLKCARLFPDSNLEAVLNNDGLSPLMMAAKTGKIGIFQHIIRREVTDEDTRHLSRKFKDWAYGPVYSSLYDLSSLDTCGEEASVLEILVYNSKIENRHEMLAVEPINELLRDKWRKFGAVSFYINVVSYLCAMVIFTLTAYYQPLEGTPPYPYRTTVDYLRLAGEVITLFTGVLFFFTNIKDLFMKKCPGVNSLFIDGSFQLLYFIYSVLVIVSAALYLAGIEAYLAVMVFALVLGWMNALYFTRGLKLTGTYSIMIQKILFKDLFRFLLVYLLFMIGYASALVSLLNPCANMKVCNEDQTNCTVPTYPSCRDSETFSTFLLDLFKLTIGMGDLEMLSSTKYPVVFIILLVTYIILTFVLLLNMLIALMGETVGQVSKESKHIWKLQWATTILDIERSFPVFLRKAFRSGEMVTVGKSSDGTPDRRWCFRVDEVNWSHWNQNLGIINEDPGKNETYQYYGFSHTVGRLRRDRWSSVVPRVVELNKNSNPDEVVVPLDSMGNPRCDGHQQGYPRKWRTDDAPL
UniProt P08195, residues 102-630: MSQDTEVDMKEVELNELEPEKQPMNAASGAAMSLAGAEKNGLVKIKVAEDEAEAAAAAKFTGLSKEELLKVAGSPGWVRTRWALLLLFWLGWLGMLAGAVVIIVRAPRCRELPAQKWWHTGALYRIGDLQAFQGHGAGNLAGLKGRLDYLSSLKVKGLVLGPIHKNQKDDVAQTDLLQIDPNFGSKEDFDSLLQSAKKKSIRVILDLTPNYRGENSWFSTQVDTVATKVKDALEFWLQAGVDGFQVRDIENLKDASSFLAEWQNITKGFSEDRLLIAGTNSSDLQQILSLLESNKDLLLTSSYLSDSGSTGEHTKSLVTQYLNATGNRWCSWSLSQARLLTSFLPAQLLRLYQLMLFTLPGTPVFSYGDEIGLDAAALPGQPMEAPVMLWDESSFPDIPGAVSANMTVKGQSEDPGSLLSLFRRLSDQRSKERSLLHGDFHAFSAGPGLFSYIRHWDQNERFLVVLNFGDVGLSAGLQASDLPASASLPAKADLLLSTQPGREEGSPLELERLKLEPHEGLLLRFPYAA

Assays:
[1] = biological target: TRPV4 in HEK293T lysate (precipitated by anti-TRPV4 antibody) (human (endogenous in HEK293T)) (UniProt Q9HBA0); test: co-IP
[2] = biological target: TRPV4 (Transient Receptor Potential Vanilloid 4), endogenous, HUVE cells (human (endogenous in HUVE)) (UniProt Q9HBA0); test: proximity ligation
[3] = biological target: FLAG tagged CD98hc(WT), 1-210 aa of CD98hc (UniProt P08195); test: co-IP
[4] = biological target: CD98hc in HEK293T lysate (precipitated by anti-CD98hc antibody) (human (endogenous in HEK293T)) (UniProt P08195); test: co-IP

binding [1]: no binding
Substance: CD98hc(ΔHH)-HA (from UniProt P08195)

binding [2]: binds
Substance: FLAG tagged CD98hc(WT), 1-210 aa of CD98hc (from UniProt P08195) (domain or fragment)

binding [3]: binds
Substance: TRPV4 overexpressed in HEK293T cells (with the FLAG-CD98hc constructs) (from UniProt Q9HBA0 1-871)

binding [4]: binds
Substance: TRPV4(ΔPR)–myc (from UniProt Q9HBA0)
